These results are taken from publication PMC10068152.

The chains behind the UniProt entries cited, without tags or fusion partners.
UniProt P10415: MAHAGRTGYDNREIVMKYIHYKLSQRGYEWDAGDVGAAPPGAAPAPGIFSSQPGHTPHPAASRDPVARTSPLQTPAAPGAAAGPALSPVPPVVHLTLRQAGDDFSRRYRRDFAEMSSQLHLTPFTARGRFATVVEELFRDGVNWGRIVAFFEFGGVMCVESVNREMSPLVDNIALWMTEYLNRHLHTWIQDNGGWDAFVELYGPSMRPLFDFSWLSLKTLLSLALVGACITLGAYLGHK

This experiment addresses BCL2 (human (endogenous in Huh7-SR)) (UniProt P10415). Kind of experiment: co-IP; Huh7-SR cells, 48 h after the indicated treatments (among them coculture with MenSCs); co-IP followed by immunoblotting; which protein was precipitated is not told. Background: Immunoblotting shows a protein as a band on a membrane.

These are yes or no findings as the source states them, for the method shown. In cells and extracts the contact can be indirect. Some results given as binding are weak or reduced against the parent protein; the word gives no strength.

Regarding Beclin1 (from UniProt Q14457 1-450), the binding entry is “binds”.
